Test results reported in the supplement of paper PMC7877785.
± gives the uncertainty stated by the source. Many of these values have a large error.

Assay: self-splicing fitness, log relative to wild type (ln ratio); higher = more splicing; Tetrahymena group I intron in knt gene, E. coli kanamycin selection, DiMSum; sequences stand for … in CUCUCU…GGAGGGAAAAGUUAUCAGGCAUGCACCUGGUAGCUAGUCUUUAAACCAAUAGAUUGCAUCGGUUUAAAAGGCAAGACCGUCAAAUUGCGGGAAAGGGGUCAACAGCCGUUCAGUACCAAGUCUCAGGGGAAACUUUGAGAUGGCCUUGCAAAGGGUAUGGUAAUAAGCUGACGGACAUGGUCCUAACCACGCAGCCAAGUCCUAAGUCAACAGAUCUUCUGUUGAUAUGGAUGCAGUUCACAGACUAAAUGUCGGUCGGGGAAGAUGUAUUCUUCUCAUAAGAUAUAGUCGGACCUCUCCUUAAUGGGAGCUAGCGGAUGAAGUGAUGCAACACUGGAGCCGCUGGGAACUAAUUUGUAUGCGAAAGUAUAUUGAUUAGUUUUGGAGUACUCGUGGUCG
Outline: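 A randomised library covering all eight P1ex-region intron nucleotides was built with the intron in the knt kanamycin-resistance gene on pET-22b(+) and held in E. coli BL21(DE3). Cells were grown overnight at 37°C or 30°C on LB agar, with or without 25 μg/mL kanamycin, plus 100 μg/mL carbenicillin, 50 μM IPTG and 0.2% rhamnose, and pooled colonies were amplicon-sequenced on an Illumina HiSeq 2500. DiMSum fitness is the error-weighted combination of wild-type-normalised replicate fold changes, kanamycin versus none.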

Sequence	self-splicing fitness (ln) (30 °C)	self-splicing fitness (ln) (37 °C)
GAAAAGCAAUAUUACGAGGG	-4.83 ± 0.51	
AGAGAGCAAUAUUACGAAGU	-3.06 ± 0.76	-2.56 ± 0.76
CCAGAGCAAUAUUACGAUCU	-4.57 ± 1	-1.95 ± 0.57
UGAUAGCAAUAUUACGGUUC	-4.44 ± 0.51	
ACGGAGCAAUAUUACGGCAU	-3.2 ± 0.56	
GGUCAGCAAUAUUACGAUCC	-5.28 ± 0.51	
GUACAGCAAUAUUACGCAGA	-3.95 ± 0.59	
UGAGAGCAAUAUUACGGCCU	-4.04 ± 1.1	
AUGUAGCAAUAUUACGGUAA	-2.15 ± 0.23	-1.36 ± 0.17
UCUUAGCAAUAUUACGAGCC		-0.0848 ± 1.2
CCUAAGCAAUAUUACGUUCA	-4.67 ± 0.51	-3.79 ± 0.51
AUGGAGCAAUAUUACGCAGA		-0.693 ± 0.82
GAGGAGCAAUAUUACGUCCC		-3.04 ± 0.75
GUCCAGCAAUAUUACGUGCG	-1.15 ± 0.085	-1.14 ± 0.12
GAUGAGCAAUAUUACGAUCU	-2.62 ± 0.76	
CUGAAGCAAUAUUACGCUCC		-1.33 ± 0.87
GCAAAGCAAUAUUACGAGUG	-2.57 ± 0.097	-0.371 ± 0.092
UAGGAGCAAUAUUACGCACU	-4.15 ± 0.51	
CCGUAGCAAUAUUACGCACU		-0.778 ± 1.4
CCAGAGCAAUAUUACGCUAC	-3.71 ± 0.74	
CACGAGCAAUAUUACGCAGA	-4.63 ± 0.59	
UCAGAGCAAUAUUACGACUA	-1.36 ± 0.64	-0.982 ± 0.84
UUCGAGCAAUAUUACGUACG		-0.522 ± 0.77

Sequence	self-splicing fitness (ln) (30 °C)	self-splicing fitness (ln) (37 °C)
UAUGAGCAAUAUUACGUAAG	-5.43 ± 1	
GCGGAGCAAUAUUACGAAGG		-2.84 ± 1
UUUCAGCAAUAUUACGAGGC		-2.11 ± 0.51
CUUUAGCAAUAUUACGGAGU	-2.36 ± 0.52	
CGUGAGCAAUAUUACGUUAC		-4.13 ± 1
GGGUAGCAAUAUUACGUUAC	-4.67 ± 0.72	
GACUAGCAAUAUUACGCGUU	-5.26 ± 0.72	
GCUUAGCAAUAUUACGUUAA	-4.66 ± 0.72	
GCGGAGCAAUAUUACGCUCG		-3.17 ± 0.53
GCGUAGCAAUAUUACGCUGU		-3.48 ± 0.59
GAGGAGCAAUAUUACGGGUA	-4.44 ± 1	-2.26 ± 0.36
CCCCAGCAAUAUUACGAUAA	-4.64 ± 0.51	
CUAGAGCAAUAUUACGGGCA	-4.55 ± 0.72	
AAUGAGCAAUAUUACGCCUC	-3.86 ± 0.73	-3.08 ± 1
UGACAGCAAUAUUACGUCAC	-3.74 ± 0.17	-3.16 ± 0.23
UGACAGCAAUAUUACGAUCG	0.0362 ± 0.077	0.761 ± 0.1
UGAGAGCAAUAUUACGCCCA		-1.15 ± 0.5
AAUUAGCAAUAUUACGGAAG	-3.79 ± 0.73	
UUGUAGCAAUAUUACGAAAC	-3.6 ± 1	
AGAUAGCAAUAUUACGAAGC	-2.62 ± 0.62	
AGAUAGCAAUAUUACGGAAC	-3.87 ± 0.6	
CUCUAGCAAUAUUACGAUCU	-1.32 ± 1.4	
AUGAAGCAAUAUUACGUGCA	-0.0826 ± 0.093	0.364 ± 0.11
